Results taken from PMC13248703.
Results are given in words; binding and its absence hold for the method and conditions named. Binding seen in cells or lysates may run through a third protein. Some results given as binding are weak or reduced against the parent protein; the word gives no strength.

By UniProt entry, the sequences of proteins in these tests, tags left out. Where a name states a change or a piece, a line headed by the entry shows the natural chain unless it says otherwise. Chains listed by the source or under a name are the forms on record and can include a tag or linker. Residues count along the entry.
VCP ΔC (deletion of amino acids 763 to 806) (P55072, residues 1-762): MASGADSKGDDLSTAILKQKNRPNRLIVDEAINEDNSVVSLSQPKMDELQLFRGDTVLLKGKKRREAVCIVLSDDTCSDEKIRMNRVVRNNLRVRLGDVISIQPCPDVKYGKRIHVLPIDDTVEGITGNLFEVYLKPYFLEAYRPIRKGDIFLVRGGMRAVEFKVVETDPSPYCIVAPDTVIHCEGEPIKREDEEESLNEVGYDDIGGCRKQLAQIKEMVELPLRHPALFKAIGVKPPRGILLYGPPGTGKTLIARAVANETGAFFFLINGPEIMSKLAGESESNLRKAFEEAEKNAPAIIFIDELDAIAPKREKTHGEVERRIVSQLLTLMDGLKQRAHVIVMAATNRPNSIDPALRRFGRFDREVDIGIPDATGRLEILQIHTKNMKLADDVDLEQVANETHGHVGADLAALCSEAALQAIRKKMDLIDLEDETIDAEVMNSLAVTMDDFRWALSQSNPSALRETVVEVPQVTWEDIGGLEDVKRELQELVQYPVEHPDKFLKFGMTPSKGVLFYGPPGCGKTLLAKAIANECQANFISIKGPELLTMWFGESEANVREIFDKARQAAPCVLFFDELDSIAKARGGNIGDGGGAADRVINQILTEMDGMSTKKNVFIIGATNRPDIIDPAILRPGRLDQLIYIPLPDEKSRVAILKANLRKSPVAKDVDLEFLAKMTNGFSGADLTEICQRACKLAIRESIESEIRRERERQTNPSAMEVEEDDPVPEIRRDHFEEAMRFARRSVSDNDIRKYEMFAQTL
VCP ΔN (deletion of amino acids 1 to 184) (P55072, residues 185-806): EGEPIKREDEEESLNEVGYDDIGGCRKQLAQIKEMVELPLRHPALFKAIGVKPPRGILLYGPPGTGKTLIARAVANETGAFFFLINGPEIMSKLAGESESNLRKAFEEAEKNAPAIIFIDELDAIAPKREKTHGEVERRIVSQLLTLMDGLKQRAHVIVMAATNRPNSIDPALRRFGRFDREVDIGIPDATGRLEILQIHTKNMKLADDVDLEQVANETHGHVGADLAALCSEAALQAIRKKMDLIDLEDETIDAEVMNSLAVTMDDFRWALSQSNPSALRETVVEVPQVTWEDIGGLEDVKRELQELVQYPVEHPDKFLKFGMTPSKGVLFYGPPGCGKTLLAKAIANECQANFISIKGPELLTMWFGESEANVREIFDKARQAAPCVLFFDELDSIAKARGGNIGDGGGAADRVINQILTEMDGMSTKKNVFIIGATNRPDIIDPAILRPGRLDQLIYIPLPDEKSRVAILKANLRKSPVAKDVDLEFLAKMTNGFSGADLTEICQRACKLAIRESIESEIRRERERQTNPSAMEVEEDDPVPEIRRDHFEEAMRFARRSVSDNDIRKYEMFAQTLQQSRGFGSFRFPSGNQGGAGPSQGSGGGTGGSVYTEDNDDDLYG
VCP ΔD2 (deletion of amino acids 482 to 762) (P55072, form named): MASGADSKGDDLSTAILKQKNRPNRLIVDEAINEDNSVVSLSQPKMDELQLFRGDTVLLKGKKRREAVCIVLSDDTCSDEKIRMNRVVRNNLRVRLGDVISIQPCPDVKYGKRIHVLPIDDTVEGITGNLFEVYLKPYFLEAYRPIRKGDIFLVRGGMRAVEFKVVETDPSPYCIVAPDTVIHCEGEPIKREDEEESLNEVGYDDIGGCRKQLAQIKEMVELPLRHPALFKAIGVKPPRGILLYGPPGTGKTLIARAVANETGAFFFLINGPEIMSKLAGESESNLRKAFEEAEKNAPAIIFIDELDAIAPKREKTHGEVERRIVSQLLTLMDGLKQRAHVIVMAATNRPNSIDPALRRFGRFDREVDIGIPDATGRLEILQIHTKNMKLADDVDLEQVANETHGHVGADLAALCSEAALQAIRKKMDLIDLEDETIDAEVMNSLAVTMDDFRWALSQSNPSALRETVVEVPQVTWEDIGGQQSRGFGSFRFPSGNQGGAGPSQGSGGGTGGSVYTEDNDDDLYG
VCP ΔD1 (deletion of amino acids 210 to 463) (P55072, form named): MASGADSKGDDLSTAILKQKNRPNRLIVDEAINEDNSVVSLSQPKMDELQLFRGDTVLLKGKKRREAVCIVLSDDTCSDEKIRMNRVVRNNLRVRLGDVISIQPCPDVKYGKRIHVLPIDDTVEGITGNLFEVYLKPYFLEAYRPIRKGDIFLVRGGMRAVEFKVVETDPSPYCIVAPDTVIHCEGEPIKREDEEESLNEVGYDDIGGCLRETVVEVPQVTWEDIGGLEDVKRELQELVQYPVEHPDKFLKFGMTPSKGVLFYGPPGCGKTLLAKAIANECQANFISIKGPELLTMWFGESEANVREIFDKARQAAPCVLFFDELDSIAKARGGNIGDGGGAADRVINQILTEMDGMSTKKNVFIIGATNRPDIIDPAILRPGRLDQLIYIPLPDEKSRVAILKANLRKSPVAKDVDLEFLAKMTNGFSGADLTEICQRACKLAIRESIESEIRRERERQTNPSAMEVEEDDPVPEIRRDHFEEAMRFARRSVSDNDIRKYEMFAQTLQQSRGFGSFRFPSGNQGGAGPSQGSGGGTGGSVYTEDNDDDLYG
UniProt O95139: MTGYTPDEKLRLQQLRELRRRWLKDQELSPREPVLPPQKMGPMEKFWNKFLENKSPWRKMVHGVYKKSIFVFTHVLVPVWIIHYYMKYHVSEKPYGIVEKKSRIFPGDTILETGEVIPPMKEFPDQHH

How the values were obtained:
[1] = molecular target: VCP ΔD2 (deletion of amino acids 482 to 762) (human) (UniProt P55072); test: co-IP; cells with plasmids of VCP WT or truncation mutants (ΔN, ΔD1, ΔD2, ΔC); SIA-IgG and NDUFB6 detected by western blot; RIPA lysate, protein A/G beads
[2] = molecular target: wild-type VCP (plasmid, 806 amino acids) (human) (UniProt P55072); test: as above
[3] = molecular target: VCP ΔN (deletion of amino acids 1 to 184) (human) (UniProt P55072); test: as above
[4] = molecular target: VCP ΔC (deletion of amino acids 763 to 806) (human) (UniProt P55072); test: as above
[5] = molecular target: VCP ΔD1 (deletion of amino acids 210 to 463) (human) (UniProt P55072); test: as above
[6] = molecular target: valosin-containing protein (human (endogenous in OSCC cells)) (UniProt P55072); test: co-IP; endogenous proteins of OSCC cells; RIPA lysate with protease inhibitors, primary antibody overnight at 4 °C, protein A/G beads 2 h at 4 °C, western blot; mIgG and RIgG as controls; also done with anti-VCP on cells with or without SIA-IgG knockdown (VCP-NDUFB6 binding weakened by the knockdown)

Measured: binding

NADH:ubiquinone oxidoreductase subunit B6 (from UniProt O95139 1-128)
binds: [1] | [2] | [3] | [4] | [5] | [6]
